Measurements reported in US20250290045A1, “SMALL MOLECULES AND METHODS FOR MODULATING TEMPORAL CONTROL OF GELATION AND HYDROGEL MECHANICS” (The Board of Trustees of the Leland Stanford Junior …, priority 2022, published 2025).

Assay: Hydrazone reaction rates of competitors with model reactants, UV spectroscopy
Assay type: physicochemical
Conditions: relative strength of the two competing reactions
Description: To quantify the extent that side groups impact reaction parameters, the forward (k1) and reverse (k−1) reaction rates were measured for each competitor at 50 μM (Table 2). For these reactions, the complementary reactant was chosen to be 50 μM of either benzaldehyde (BZA) or hydrazinoacetic acid (HydAA), because they are the crosslinking functionalities of HELP, and can provide key insight into DCC interactions without the complexity of the full HA and ELP polymers. (Winne, Leibler et al. 2019) The formation of a hydrazone bond was observed via absorbance with UV spectroscopy and converted to a concentration over time. An analytical solution to a second order reaction rate, assuming equal concentrations of reactants, was fit to the concentration as a function of time. (Dirksen, Dirksen et al. 2006, Mckinnon, Domaille et al. 2014)

| SMILES | Keq^1/Keq^2 (competitor reaction relative to crosslinking reaction) |
| --- | --- |
| CCCC=O [Butyraldehyde, butyraldehyde] | ~10^2 |
| NNCC(=O)O [Hydrazinoacetic acid, hydrazinoacetic acid] | ~10^0 |
| NNc1ccc(C(=O)O)cc1 [Hydrazinobenzoic acid, 4-hydrazinobenzoic acid] | ~10^1 |
